{"source": "patent EP4389751A1", "about": "“HETEROCYCLIC COMPOUNDS AND USES THEREOF” (Kumquat Biosciences Inc., priority 2021, dated 2024)", "note": "Some entries share one result that the patent states for a list of compounds. At least one compound was matched to its structure with a doubt left."}
{"target": "T1, KRAS protein (His-tagged GDP-loaded G12D 1-169) (Homo sapiens, UniProt P01116, G12D)", "T1 construct": "His-tagged GDP-loaded G12D 1-169", "assay": "Covalent modification of KRAS protein, intact-protein LC-MS", "assay_type": "binding", "conditions": "assayed under comparable conditions as K-Ras G12S", "experimental": "Test compounds are prepared as 10 mM stock solutions in DMSO (Fisher cat#BP231-100). KRAS protein (His-tagged GDP-loaded wildtype 1-169, His-tagged GDP-loaded G12S 1-169 or His-tagged GDP-loaded G12D 1-169) is diluted to ~2 µM in appropriate buffer (e.g., a Hepes buffer at physiological conditions). For testing KRAS modification, compounds are diluted to 50X final test concentration in DMSO in 96-well storage plates. 2 µl of the diluted 50X compounds are added to appropriate wells in the PCR plate (Fisher cat#AB-0800). […] of the stock protein solution is added to each well of the 96-well PCR plate. Reactions are mixed carefully. The plate is sealed well with aluminum plate seal, and stored in drawer at room temperature for 24hrs. 5 µl of 2% formic acid (Fisher cat#A1 17-50) in MilliQ H2O is then added to each well followed by mixing with a pipette. The plate is then resealed with aluminum seal and stored until mass spectrometry analysis.\nThe extent of covalent modification of KRAS proteins was determined by liquid chromatography electrospray mass spectrometry analysis of the intact proteins on a Thermo Q-Exactive Plus mass spectrometer. 20 µl of sample was injected onto a bioZen 3.6 µm Intact C4 column (Phenomenex cat#00B-4767-AN) placed in a column oven set to 40°C and separated using a suitable LC gradient from -20% to ~60% solvent B. Solvent A was 0.1% formic acid and solvent B was 0.1% formic acid in acetonitrile. HESI source settings were set to 40, 5 and 1 for the sheath, auxiliary and sweep gas flow, respectively. The spray voltage was 4 kV, and the capillary temperature was 320°C. S-lens RF level was 50 and auxiliary gas heater temperature was set to 200°C. The mass spectrometry was acquired using a scan range from 650 to 1750 m/z using positive polarity at a mass resolution of 70,000, AGC target of 1e6 ions and maximum injection time of 250ms. The recorded protein mass spectrum was deconvoluted from the raw data file using Protein Deconvolution v4.0 (Thermo). The protein mass and adduct masses were exported with their peak intensities. The peak intensities for the unmodified and modified protein were used to calculate the percent covalent modification of the KRAS protein based on the following equation: %KRAS protein modification = ((KRAS-compound) / (KRAS) + (KRAS-Compound)) *100."}
{"molecule": "Nc1nc2c(-c3c(Cl)cc4c(N5CCC56CCCN(C(=O)n5cncn5)CC6)nc(OC[C@@]56CCCN5C[C@H](F)C6)nc4c3F)ccc(F)c2s1", "note": "(stereo partly drawn) [Compound A209, (1-(7-(2-amino-7-fluorobenzo[d]thiazol-4-yl)-6-chloro-8-fluoro-2-(((2R,7aS)-2-fluorotetrahydro-1H-pyrrolizin-7a(5H)-yl)methoxy)quinazolin-4-yl)-1,7-diazaspiro[3.6]decan-7-yl)(1H-1,2,4-triazol-1-yl)methanone]", "labeling of K-Ras G12D": "essentially no detectable labeling"}
{"molecule": "C#Cc1c(F)ccc2cc(O)cc(-c3ccc4c(N5CCCC6(CN(C(=O)n7cncn7)C6)C5)nc(OC[C@@]56CCCN5C[C@H](F)C6)nc4c3F)c12", "note": "[Compound A210, (6-(7-(8-ethynyl-7-fluoro-3-hydroxynaphthalen-1-yl)-8-fluoro-2-(((2R,7aS)-2-fluorotetrahydro-1H-pyrrolizin-7a(5H)-yl)methoxy)quinazolin-4-yl)-2,6-diazaspiro[3.5]nonan-2-yl)(1H-1,2,4-triazol-1-yl)methanone]", "labeling of K-Ras G12D": "essentially no detectable labeling"}
{"molecule": "N#Cc1c(N)sc2c(F)ccc(-c3c(Cl)cc4c(O[C@@H]5CCN(C(=O)n6cncn6)C5)nc(OCC56CCCN5C[C@H](F)C6)nc4c3F)c12", "note": "(stereo partly drawn) [Compound A213, 4-(4-(((R)-1-(1H-1,2,4-triazole-1-carbonyl)pyrrolidin-3-yl)oxy)-6-chloro-8-fluoro-2-(((2R)-2-fluorotetrahydro-1H-pyrrolizin-7a(5H)-yl)methoxy)quinazolin-7-yl)-2-amino-7-fluorobenzo[b]thiophene-3-carbonitrile]", "labeling of K-Ras G12D": "essentially no detectable labeling"}
{"molecule": "C[C@H](Oc1nc(N2CCCCC3(CN(C(=O)n4cncn4)C3)C2)c2cc(Cl)c(-c3ccc(F)c4sc(N)c(C#N)c34)c(F)c2n1)[C@@H]1CCCN1C", "note": "[Compound A219, 4-(4-(2-(1H-1,2,4-triazole-1-carbonyl)-2,6-diazaspiro[3.6]decan-6-yl)-6-chloro-8-fluoro-2-((S)-1-((S)-1-methylpyrrolidin-2-yl)ethoxy)quinazolin-7-yl)-2-amino-7-fluorobenzo[b]thiophene-3-carbonitrile]", "labeling of K-Ras G12D": "essentially no detectable labeling"}
{"molecule": "Nc1nc2c(-c3c(Cl)cc4c(N5CCOC6(CCN(C(=O)n7cncn7)C6)C5)nc(OC[C@@]56CCCN5C[C@H](F)C6)nc4c3F)ccc(F)c2s1", "note": "(stereo partly drawn) [Compound A221, (9-(7-(2-amino-7-fluorobenzo[d]thiazol-4-yl)-6-chloro-8-fluoro-2-(((2R,7aS)-2-fluorotetrahydro-1H-pyrrolizin-7a(5H)-yl)methoxy)quinazolin-4-yl)-6-oxa-2,9-diazaspiro[4.5]decan-2-yl)(1H-1,2,4-triazol-1-yl)methanone]", "labeling of K-Ras G12D": "essentially no detectable labeling"}
{"molecule": "Nc1nc2c(-c3c(Cl)cc4c(N5CC6(CCCN(C(=O)n7cncn7)C6)C5)nc(OC[C@@]56CCCN5C[C@H](F)C6)nc4c3F)ccc(F)c2s1", "note": "[Compound A230, (2-(7-(2-amino-7-fluorobenzo[d]thiazol-4-yl)-6-chloro-8-fluoro-2-(((2R,7aS)-2-fluorotetrahydro-1H-pyrrolizin-7a(5H)-yl)methoxy)quinazolin-4-yl)-2,6-diazaspiro[3.5]nonan-6-yl)(1H-1,2,4-triazol-1-yl)methanone]", "labeling of K-Ras G12D": "essentially no detectable labeling"}
{"molecule": "Nc1nc2c(-c3c(Cl)cc4c(N5CCOC6(CCN(C(=O)n7cncn7)CC6)C5)nc(OCC56CCCN5C[C@H](F)C6)nc4c3F)ccc(F)c2s1", "note": "(stereo partly drawn) [Compound A243, (4-(7-(2-amino-7-fluorobenzo[d]thiazol-4-yl)-6-chloro-8-fluoro-2-(((2R)-2-fluorotetrahydro-1H-pyrrolizin-7a(5H)-yl)methoxy)quinazolin-4-yl)-1-oxa-4,9-diazaspiro [5.5]undecan-9-yl)(1H-1,2,4-triazol-1-yl)methanone]", "labeling of K-Ras G12D": "essentially no detectable labeling"}
{"molecule": "C#Cc1c(F)ccc2cc(O)cc(-c3ncc4c(N5CC6CCC(C5)N6C(=O)n5cnc(C#N)c5)nc(OC[C@@]56CCCN5C[C@H](F)C6)nc4c3F)c12", "note": "[Compound A255, 1-(3-(7-(8-ethynyl-7-fluoro-3-hydroxynaphthalen-1-yl)-8-fluoro-2-(((2R,7aS)-2-fluorotetrahydro-1H-pyrrolizin-7a(5H)-yl)methoxy)pyrido[4,3-d]pyrimidin-4-yl)-3,8-diazabicyclo[3.2.1]octane-8-carbonyl)-1H-imidazole-4-carbonitrile]", "labeling of K-Ras G12D": "essentially no detectable labeling"}
{"molecule": "CN(C)C1CN(c2nc(N3CCOC4(CN(C(=O)n5cncn5)C4)C3)c3cc(Cl)c(-c4ccc(F)c5sc(N)c(C#N)c45)c(F)c3n2)C1", "note": "[Compound A256, 4-(4-(2-(1H-1,2,4-triazole-1-carbonyl)-5-oxa-2,8-diazaspiro[3.5]nonan-8-yl)-6-chloro-2-(3-(dimethylamino)azetidin-1-yl)-8-fluoroquinazolin-7-yl)-2-amino-7-fluorobenzo[b]thiophene-3-carbonitrile]", "labeling of K-Ras G12D": "essentially no detectable labeling"}
{"molecule": "Nc1nc2c(-c3c(Cl)cc4c(N5CCCCC6(CN(C(=O)n7cncn7)C6)C5)nc(OC[C@@]56CCCN5C[C@H](F)C6)nc4c3F)ccc(F)c2s1", "note": "[Compound A265, (6-(7-(2-amino-7-fluorobenzo[d]thiazol-4-yl)-6-chloro-8-fluoro-2-(((2R,7aS)-2-fluorotetrahydro-1H-pyrrolizin-7a(5H)-yl)methoxy)quinazolm-4-yl)-2,6-diazaspiro[3.6]decan-2-yl)(1H-1,2,4-triazol-1-yl)methanone]", "labeling of K-Ras G12D": "essentially no detectable labeling"}
{"molecule": "N#Cc1c(N)sc2c(F)ccc(-c3c(Cl)cc4c(N5CC6(CCCN(C(=O)n7cncn7)C6)C5)nc(OC[C@@]56CCCN5C[C@H](F)C6)nc4c3F)c12", "note": "[Compound A266, 4-(4-(6-(1H-1,2,4-triazole-1-carbonyl)-2,6-diazaspiro[3.5]nonan-2-yl)-6-chloro-8-fluoro-2-(((2R,7aS)-2-fluorotetrahydro-1H-pyrrolizin-7a(5H)-yl)methoxy)quinazolm-7-yl)-2-amino-7-fluorobenzo[b]thiophene-3-carbonitrile]", "labeling of K-Ras G12D": "essentially no detectable labeling"}
{"molecule": "N#Cc1c(N)sc2c(F)ccc(-c3c(Cl)cc4c(N5CCCC6(CCN(C(=O)n7cncn7)C6)C5)nc(OC[C@@]56CCCN5C[C@H](F)C6)nc4c3F)c12", "note": "(stereo partly drawn) [Compound A269, 4-(4-(2-(1H-1,2,4-triazole-1-carbonyl)-2,7-diazaspiro[4.5]decan-7-yl)-6-chloro-8-fluoro-2-(((2R,7aS)-2-fluorotetrahydro-1H-pyrrolizin-7a(5H)-yl)methoxy)quinazolin-7-yl)-2-amino-7-fluorobenzo[b]thiophene-3-carbonitrile]", "labeling of K-Ras G12D": "essentially no detectable labeling"}
{"molecule": "C[C@H](Oc1nc(N2CCOC3(CN(C(=O)n4cncn4)C3)C2)c2cc(Cl)c(-c3ccc(F)c4sc(N)c(C#N)c34)c(F)c2n1)[C@@H]1CCCN1C", "note": "[Compound A275, 4-(4-(2-(1H-1,2,4-triazole-1-carbonyl)-5-oxa-2,8-diazaspiro[3.5]nonan-8-yl)-6-chloro-8-fluoro-2-((S)-1-((S)-1-methylpyrrolidin-2-yl)ethoxy)quinazolin-7-yl)-2-amino-7-fluorobenzo[b]thiophene-3-carbonitrile]", "labeling of K-Ras G12D": "essentially no detectable labeling"}
{"molecule": "Nc1nc2c(-c3c(Cl)cc4c(N5CC6(CCN(C(=O)n7cncn7)C6)C5)nc(OC[C@@]56CCCN5C[C@H](F)C6)nc4c3F)ccc(F)c2s1", "note": "[Compound A279, (2-(7-(2-amino-7-fluorobenzo[d]thiazol-4-yl)-6-chloro-8-fluoro-2-(((2R,7aS)-2-fluorotetrahydro-1H-pyrrolizin-7a(5H)-yl)methoxy)quinazolin-4-yl)-2,6-diazaspiro[3.4]octan-6-yl)(1H-1,2,4-triazol-1-yl)methanone]", "labeling of K-Ras G12D": "essentially no detectable labeling"}
{"molecule": "N#Cc1c(N)sc2c(F)ccc(-c3c(Cl)cc4c(N5CCN(C(=O)n6cncn6)CC(F)(F)C5)nc(OC[C@@]56CCCN5C[C@H](F)C6)nc4c3F)c12", "note": "[Compound A280, 2-amino-4-(6-chloro-4-(6,6-difluoro-4-(1H-1,2,4-triazole-1-carbonyl)-1,4-diazepan-1-yl)-8-fluoro-2-(((2R,7aS)-2-fluorotetrahydro-1H-pyrrolizin-7a(5H)-yl)methoxy)quinazolin-7-yl)-7-fluorobenzo[b]thiophene-3-carbonitrile]", "labeling of K-Ras G12D": "essentially no detectable labeling"}
